Reference: the supplement of paper PMC6411743
± gives the standard deviation of the averaged measurements. The entries are a selection whose mix differs from that of the whole data set. Most entries show no effect beyond the scatter of the controls.

The chains behind the UniProt entries cited, without tags or fusion partners. Where a name states a change or a piece, a line headed by the entry shows the natural chain unless it says otherwise.
UniProt Q8TAA5: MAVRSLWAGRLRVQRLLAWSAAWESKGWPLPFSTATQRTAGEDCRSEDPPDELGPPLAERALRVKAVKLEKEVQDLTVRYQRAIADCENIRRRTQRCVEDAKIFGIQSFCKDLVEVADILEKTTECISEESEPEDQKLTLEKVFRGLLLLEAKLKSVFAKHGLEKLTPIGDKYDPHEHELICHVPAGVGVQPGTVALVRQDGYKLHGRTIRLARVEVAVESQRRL
UniProt Q8NFC6: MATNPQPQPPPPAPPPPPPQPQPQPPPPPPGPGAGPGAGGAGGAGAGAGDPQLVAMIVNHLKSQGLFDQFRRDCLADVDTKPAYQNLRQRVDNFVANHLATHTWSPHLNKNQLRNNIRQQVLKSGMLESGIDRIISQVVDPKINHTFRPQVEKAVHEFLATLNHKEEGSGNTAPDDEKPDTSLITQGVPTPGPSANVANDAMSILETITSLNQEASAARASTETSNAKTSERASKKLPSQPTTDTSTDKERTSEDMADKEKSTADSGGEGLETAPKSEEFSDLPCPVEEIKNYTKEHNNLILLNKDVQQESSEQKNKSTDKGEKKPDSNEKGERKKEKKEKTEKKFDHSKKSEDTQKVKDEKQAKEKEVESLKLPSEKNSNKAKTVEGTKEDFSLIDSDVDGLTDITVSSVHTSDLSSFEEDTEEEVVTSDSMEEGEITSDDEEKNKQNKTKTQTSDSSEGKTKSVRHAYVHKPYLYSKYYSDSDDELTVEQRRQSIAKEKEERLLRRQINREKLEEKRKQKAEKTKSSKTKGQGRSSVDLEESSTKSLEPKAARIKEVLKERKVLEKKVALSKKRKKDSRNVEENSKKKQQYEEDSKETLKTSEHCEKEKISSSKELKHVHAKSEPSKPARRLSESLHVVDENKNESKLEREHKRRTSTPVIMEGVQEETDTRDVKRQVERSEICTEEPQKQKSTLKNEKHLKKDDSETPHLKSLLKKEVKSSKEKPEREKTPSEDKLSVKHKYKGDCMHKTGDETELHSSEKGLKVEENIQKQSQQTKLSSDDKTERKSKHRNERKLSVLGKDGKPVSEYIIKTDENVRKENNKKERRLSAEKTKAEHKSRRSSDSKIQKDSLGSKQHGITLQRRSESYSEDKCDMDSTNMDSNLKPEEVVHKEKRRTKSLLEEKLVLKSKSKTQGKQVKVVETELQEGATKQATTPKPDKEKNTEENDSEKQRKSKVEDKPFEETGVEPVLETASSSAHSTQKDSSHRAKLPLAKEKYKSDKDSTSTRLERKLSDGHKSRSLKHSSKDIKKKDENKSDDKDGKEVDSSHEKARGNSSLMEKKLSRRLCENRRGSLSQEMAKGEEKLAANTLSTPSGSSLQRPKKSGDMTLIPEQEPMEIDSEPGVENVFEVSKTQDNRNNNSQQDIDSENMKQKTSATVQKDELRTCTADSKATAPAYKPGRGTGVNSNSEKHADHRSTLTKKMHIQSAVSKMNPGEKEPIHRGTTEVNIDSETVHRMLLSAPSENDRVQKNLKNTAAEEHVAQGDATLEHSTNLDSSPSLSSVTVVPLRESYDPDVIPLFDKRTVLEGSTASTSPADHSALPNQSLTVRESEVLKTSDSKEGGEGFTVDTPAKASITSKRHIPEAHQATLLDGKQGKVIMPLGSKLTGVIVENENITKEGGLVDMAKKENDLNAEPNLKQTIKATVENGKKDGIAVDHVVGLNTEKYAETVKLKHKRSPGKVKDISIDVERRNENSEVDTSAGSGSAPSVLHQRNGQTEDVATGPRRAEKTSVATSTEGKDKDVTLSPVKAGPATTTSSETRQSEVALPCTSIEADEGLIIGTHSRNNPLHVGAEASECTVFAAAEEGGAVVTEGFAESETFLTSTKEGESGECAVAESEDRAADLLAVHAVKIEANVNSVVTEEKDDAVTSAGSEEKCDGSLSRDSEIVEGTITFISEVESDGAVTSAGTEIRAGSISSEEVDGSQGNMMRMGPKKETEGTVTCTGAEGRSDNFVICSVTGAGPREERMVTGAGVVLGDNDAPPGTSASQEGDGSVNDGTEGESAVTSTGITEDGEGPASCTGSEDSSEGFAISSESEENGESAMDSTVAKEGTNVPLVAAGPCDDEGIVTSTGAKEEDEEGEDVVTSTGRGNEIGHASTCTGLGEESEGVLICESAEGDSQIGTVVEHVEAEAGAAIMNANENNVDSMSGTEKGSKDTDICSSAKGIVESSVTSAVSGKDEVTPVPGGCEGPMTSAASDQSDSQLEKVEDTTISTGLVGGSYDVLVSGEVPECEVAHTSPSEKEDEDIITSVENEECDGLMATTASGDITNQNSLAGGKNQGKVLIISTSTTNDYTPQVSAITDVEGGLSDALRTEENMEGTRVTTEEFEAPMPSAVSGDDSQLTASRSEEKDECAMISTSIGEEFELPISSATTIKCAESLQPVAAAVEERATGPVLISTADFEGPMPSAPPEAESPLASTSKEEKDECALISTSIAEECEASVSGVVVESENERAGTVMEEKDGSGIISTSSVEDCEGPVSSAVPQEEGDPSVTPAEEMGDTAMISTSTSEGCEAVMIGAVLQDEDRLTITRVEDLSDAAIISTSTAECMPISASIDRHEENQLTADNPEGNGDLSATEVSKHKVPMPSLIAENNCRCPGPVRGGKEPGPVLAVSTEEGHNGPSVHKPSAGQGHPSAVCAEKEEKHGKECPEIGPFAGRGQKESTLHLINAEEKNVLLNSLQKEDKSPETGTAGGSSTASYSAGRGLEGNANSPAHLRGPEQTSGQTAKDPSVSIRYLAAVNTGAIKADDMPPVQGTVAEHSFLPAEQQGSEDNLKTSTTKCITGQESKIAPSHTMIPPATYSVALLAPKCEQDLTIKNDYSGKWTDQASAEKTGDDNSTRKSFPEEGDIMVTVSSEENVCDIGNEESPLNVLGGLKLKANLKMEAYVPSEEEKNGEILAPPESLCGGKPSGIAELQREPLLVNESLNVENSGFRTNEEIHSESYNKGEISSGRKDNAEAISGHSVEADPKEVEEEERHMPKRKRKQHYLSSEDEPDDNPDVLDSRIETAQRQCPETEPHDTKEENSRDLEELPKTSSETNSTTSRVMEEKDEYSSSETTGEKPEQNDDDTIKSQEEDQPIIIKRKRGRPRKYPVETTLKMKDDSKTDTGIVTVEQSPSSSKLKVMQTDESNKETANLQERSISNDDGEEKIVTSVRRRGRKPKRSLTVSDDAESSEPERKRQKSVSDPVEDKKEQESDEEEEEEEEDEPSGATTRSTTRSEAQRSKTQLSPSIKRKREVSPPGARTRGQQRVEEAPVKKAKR
UniProt Q8TBE9: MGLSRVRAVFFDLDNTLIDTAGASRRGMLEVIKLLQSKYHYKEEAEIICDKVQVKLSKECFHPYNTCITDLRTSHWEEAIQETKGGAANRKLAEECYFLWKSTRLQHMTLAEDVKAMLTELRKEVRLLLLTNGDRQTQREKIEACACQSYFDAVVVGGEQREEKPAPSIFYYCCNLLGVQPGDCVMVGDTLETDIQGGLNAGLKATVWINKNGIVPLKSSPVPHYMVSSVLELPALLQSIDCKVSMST
UniProt Q8NFW8: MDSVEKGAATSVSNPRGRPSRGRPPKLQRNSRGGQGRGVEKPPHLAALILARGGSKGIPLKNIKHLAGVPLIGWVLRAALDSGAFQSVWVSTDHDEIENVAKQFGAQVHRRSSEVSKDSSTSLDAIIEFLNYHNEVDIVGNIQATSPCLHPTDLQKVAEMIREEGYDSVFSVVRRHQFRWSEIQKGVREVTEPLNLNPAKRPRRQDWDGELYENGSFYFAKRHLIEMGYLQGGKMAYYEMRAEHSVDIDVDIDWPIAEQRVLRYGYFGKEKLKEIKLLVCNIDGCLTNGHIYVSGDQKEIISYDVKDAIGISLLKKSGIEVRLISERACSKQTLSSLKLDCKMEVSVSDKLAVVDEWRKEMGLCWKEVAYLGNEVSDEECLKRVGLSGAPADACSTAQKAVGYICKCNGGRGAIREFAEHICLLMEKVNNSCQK
UniProt Q8NI08: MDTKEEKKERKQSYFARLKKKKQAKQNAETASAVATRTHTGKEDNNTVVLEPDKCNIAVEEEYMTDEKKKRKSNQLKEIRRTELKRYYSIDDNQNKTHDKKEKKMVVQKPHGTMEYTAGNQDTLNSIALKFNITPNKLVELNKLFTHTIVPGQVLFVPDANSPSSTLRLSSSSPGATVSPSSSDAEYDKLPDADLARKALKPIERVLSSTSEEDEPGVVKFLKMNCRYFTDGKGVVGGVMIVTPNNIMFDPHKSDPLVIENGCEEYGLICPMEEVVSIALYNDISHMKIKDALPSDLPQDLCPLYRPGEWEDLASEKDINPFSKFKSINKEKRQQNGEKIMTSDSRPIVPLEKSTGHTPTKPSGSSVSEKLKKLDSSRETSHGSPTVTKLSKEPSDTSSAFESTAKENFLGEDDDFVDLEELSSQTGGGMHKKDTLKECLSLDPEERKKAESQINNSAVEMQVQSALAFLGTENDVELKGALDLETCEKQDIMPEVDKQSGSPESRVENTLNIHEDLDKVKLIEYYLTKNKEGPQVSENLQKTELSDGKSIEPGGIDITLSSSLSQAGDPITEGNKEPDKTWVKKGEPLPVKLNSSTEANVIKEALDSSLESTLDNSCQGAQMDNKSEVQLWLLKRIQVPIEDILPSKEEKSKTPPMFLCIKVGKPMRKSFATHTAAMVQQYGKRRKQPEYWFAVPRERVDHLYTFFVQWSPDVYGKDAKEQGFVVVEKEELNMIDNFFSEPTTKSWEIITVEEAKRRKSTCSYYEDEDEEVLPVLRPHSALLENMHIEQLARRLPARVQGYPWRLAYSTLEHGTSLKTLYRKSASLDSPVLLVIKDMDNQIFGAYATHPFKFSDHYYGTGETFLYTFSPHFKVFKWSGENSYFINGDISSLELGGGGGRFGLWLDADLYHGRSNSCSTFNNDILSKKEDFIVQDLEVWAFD
UniProt Q8TAP6: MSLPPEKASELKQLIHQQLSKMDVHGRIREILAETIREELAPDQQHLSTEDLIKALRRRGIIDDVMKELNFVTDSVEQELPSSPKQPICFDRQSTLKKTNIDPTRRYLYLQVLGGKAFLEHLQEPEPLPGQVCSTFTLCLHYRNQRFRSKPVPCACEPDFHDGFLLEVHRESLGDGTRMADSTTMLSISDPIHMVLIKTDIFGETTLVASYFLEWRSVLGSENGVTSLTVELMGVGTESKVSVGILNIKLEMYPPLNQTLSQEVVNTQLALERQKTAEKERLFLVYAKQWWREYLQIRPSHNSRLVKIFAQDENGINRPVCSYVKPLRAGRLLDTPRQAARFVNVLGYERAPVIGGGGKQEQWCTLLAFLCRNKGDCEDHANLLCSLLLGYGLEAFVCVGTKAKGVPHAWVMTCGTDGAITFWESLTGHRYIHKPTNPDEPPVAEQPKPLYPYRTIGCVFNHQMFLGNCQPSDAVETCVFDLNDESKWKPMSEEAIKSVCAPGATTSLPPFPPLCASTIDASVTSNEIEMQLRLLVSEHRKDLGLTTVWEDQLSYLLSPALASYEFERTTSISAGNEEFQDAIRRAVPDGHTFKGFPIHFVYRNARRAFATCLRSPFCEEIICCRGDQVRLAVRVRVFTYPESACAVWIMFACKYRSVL
UniProt Q92611: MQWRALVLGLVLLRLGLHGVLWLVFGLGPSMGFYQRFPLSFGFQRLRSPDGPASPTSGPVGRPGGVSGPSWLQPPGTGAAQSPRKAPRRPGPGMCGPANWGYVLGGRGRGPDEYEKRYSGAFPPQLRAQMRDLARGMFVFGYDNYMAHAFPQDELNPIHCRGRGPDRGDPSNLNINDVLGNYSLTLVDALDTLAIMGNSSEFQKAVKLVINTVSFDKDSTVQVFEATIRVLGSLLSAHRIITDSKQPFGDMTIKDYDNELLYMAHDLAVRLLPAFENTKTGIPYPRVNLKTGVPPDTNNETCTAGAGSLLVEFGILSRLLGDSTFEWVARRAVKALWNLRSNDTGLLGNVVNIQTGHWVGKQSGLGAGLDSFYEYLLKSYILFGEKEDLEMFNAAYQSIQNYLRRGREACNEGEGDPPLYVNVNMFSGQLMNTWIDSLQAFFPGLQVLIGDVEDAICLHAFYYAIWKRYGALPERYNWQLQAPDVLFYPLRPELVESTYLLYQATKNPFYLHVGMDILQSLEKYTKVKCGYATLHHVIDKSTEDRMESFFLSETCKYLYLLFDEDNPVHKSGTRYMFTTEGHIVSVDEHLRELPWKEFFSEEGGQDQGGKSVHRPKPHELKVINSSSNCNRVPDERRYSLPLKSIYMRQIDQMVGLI
UniProt Q8WW59: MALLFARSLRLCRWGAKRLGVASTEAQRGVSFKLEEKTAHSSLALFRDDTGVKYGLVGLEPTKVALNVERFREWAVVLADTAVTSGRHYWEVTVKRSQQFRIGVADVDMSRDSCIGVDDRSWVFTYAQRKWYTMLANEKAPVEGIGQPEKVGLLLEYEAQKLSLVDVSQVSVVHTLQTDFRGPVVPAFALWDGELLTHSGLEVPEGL

Compound: Nc1ncnc2c1ncn2[C@@H]1O[C@H](COP(=O)(O)OP(=O)(O)NP(=O)(O)O)[C@@H](O)[C@H]1O [adenylyl imidodiphosphate]
Assay: NP40-soluble protein abundance relative to vehicle (solubility fold change) (ratio); higher = more soluble protein in presence of AMP-PNP
In short: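 Values are fold changes against the detergent-processed vehicle, based on vsn-normalised intensities. Jurkat crude lysate was treated at eight concentrations from 0.1 to 10 mM (10 min at room temperature, then 3 min at 37 °C), solubilised with 0.8% NP40 and benzonase, ultracentrifuged and analysed by TMT-labelled LC-MS/MS over three independent experiments.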

Target	NP40-soluble protein abundance (concentration: 0.1mM)	NP40-soluble protein abundance (concentration: 0.5mM)
GRPEL2 (UniProt Q8TAA5)	1.03 ± 0.053	1.04 ± 0.082
UniProt Q8NFC6	1 ± 0.027	0.999 ± 0.043
RDH11 (UniProt Q8TC12)	0.989 ± 0.019	0.989 ± 0.1
UniProt Q8WUY1	0.989 ± 0.031	0.995 ± 0.049
NANP (UniProt Q8TBE9)	0.994 ± 0.017	1.03 ± 0.021
UniProt Q8NFH5 and related entries	1.01 ± 0.0076	1.01 ± 0.022
UniProt Q8TCT9 and related entries	0.978 ± 0.033	0.981 ± 0.063
TGFBRAP1 (UniProt Q8WUH2)	0.994 ± 0.039	0.988 ± 0.073
UniProt Q8TD16 and related entries	0.993 ± 0.018	0.999 ± 0.042
OSTF1 (UniProt Q92882)	1.01 ± 0.028	0.994 ± 0.036
PLA2G15 (UniProt Q8NCC3)	1.05 ± 0.034	0.99 ± 0.038
UniProt Q92766 and related entries	1 ± 0.02	1 ± 0.049
UniProt Q8TDQ7 and related entries	1 ± 0.013	1.02 ± 0.063
UniProt Q8NFF5 and related entries	1.01 ± 0.014	0.991 ± 0.024
UniProt Q92878 and related entries	1 ± 0.025	1.01 ± 0.049
DTX3L (UniProt Q8TDB6)	1.01 ± 0.011	0.985 ± 0.012
PDCD6IP (UniProt Q8WUM4)	0.989 ± 0.02	1 ± 0.03
ZNF516 (UniProt Q92618)	0.999 ± 0.02	0.986 ± 0.024
SMARCC1 (UniProt Q92922)	1.01 ± 0.035	1.05 ± 0.052
NECAP1 (UniProt Q8NC96)	1.02 ± 0.042	1 ± 0.038
TMEM131 (UniProt Q92545)	0.963 ± 0.021	0.985 ± 0.017

Target	NP40-soluble protein abundance (concentration: 0.1mM)	NP40-soluble protein abundance (concentration: 0.5mM)
CMAS (UniProt Q8NFW8)	0.9817 ± 0.0014	1.01 ± 0.024
LPCAT1 (UniProt Q8NF37)	0.963 ± 0.02	0.95 ± 0.062
UniProt Q92900 and related entries	1 ± 0.027	0.98 ± 0.08
NUBPL (UniProt Q8TB37)	0.988 ± 0.027	1.02 ± 0.047
UniProt Q8NEZ2 and related entries	0.965 ± 0.042	0.979 ± 0.027
UniProt Q8NI08 and related entries	0.94 ± 0.011	0.953 ± 0.025
UniProt Q92619	1 ± 0.034	1.01 ± 0.025
RTN4IP1 (UniProt Q8WWV3)	0.993 ± 0.049	0.956 ± 0.055
UniProt Q8TAP6 and related entries	0.999 ± 0.023	0.987 ± 0.039
COPS5 (UniProt Q92905)	1.04 ± 0.069	0.984 ± 0.027
UniProt Q8WX93 and related entries	0.991 ± 0.037	0.995 ± 0.06
GADD45GIP1 (UniProt Q8TAE8)	1.03 ± 0.018	1.002 ± 0.0065
RTF1 (UniProt Q92541)	0.98 ± 0.03	1.01 ± 0.056
RAB2B (UniProt Q8WUD1)	1.01 ± 0.059	0.994 ± 0.028
DPF2 (UniProt Q92785)	0.967 ± 0.039	0.951 ± 0.047
UniProt Q8WXA9-2	0.993 ± 0.031	0.982 ± 0.022
PPP1R35 (UniProt Q8TAP8)	0.99 ± 0.012	0.9794 ± 0.0064
TMEM263 (UniProt Q8WUH6)	0.978 ± 0.02	1.01 ± 0.06
EDEM1 (UniProt Q92611)	1.01 ± 0.018	0.999 ± 0.022
DDB2 (UniProt Q92466)	0.981 ± 0.016	0.971 ± 0.072
UniProt Q8NDZ4 and related entries	0.99669 ± 0.00068	0.997 ± 0.036

Already shown: entries from further up.
Target	NP40-soluble protein abundance (concentration: 0.1mM)	NP40-soluble protein abundance (concentration: 0.5mM)
DPF2 (UniProt Q92785)	0.967 ± 0.039	0.951 ± 0.047
UniProt Q8WXA9-2	0.993 ± 0.031	0.982 ± 0.022
PPP1R35 (UniProt Q8TAP8)	0.99 ± 0.012	0.9794 ± 0.0064

The list continues:

Target	NP40-soluble protein abundance (concentration: 0.1mM)	NP40-soluble protein abundance (concentration: 0.5mM)
UniProt Q8NFD5 and related entries	0.9716 ± 0.0085	0.981 ± 0.03
RNF214 (UniProt Q8ND24)	0.994 ± 0.024	0.999 ± 0.032
UniProt Q8WVE0	1.01 ± 0.035	0.961 ± 0.013
UniProt Q8TAA3 and related entries	0.999 ± 0.017	0.984 ± 0.026
FBXO30 (UniProt Q8TB52)	1.009 ± 0.0054	0.988 ± 0.03
PXDN (UniProt Q92626)	0.984 ± 0.025	1 ± 0.051
UniProt Q8TAT6 and related entries	0.971 ± 0.052	0.977 ± 0.018
PRCC (UniProt Q92733)	0.938 ± 0.025	0.983 ± 0.052
SCCPDH (UniProt Q8NBX0)	1.01 ± 0.045	0.982 ± 0.085
RABGGTA (UniProt Q92696)	1.02 ± 0.049	0.969 ± 0.1
UniProt Q8TC07-2	1.02 ± 0.023	0.992 ± 0.041
SPRYD4 (UniProt Q8WW59)	0.998 ± 0.018	0.991 ± 0.064
UniProt Q92796-3	1.01 ± 0.016	1.03 ± 0.022
UniProt Q92896 and related entries	0.978 ± 0.012	0.993 ± 0.043
UniProt Q8NDV3-2|Q8NDV3-3	0.943 ± 0.019	0.971 ± 0.015
UniProt Q92793 and related entries	1.05 ± 0.059	1.04 ± 0.028
PLBD2 (UniProt Q8NHP8)	0.974 ± 0.027	1.01 ± 0.046
UniProt Q8TAP9	0.975 ± 0.02	1.01 ± 0.035
UniProt Q8NCA5 and related entries	1.01 ± 0.024	1.05 ± 0.042
